Measurements taken from PubChem BioAssay AID1347426 (Functional Genomics Laboratory (NCATS/FGL), 2020).
Among all 31,000 sequences or so, about 1,400 (4.5%) were called active.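 Rule for the calls: active = median seed-adjusted z-score above 1 or below -1; inactive = the rest.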 The list shows a part of the results.

Assay: Novel Modifiers of Survival Motor Neuron (SMN) Protein: Gene Identification via Genome-wide siRNA Screen;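 note: luminescence tracks full-length SMN protein made from the SMN2 reporter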
Conditions: HEK293T SMN2-luciferase reporter, siRNA knockdown, 72 h; actives lie on both sides
In short: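 HEK293T cells stably carrying an SMN2 promoter/splicing cassette–luciferase reporter were reverse-transfected with 1 pmol siRNA per well (druggable-genome library, 3 siRNAs per gene) and grown 72 h at 37 °C. Luminescence, normalized to negative-control siRNA and log10-transformed, was scored as MAD.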
In the case of CAUCGAUCCCAAUAACCCATT against HOXA9, the median seed-adjusted z-score is reported as inactive: -0.304.
For GAAUGUGGGCUAUCUAGAATT against B4GALT4, the median seed-adjusted z-score was inactive: -0.0479.
In the case of GUCAUUUACUUGUACGAGATT against CLDN11, the median seed-adjusted z-score is reported as inactive: 0.268.
In the case of GGAACAAUGUAUCUAACAATT against BOLL, the median seed-adjusted z-score is reported as inactive: -0.072.
With GGACUACACCAGGACUGUATT against INPP5E the median seed-adjusted z-score was inactive: -0.0321.
In the case of GCUUCAUCGACAAAGAGGATT against MYLC2PL, the median seed-adjusted z-score is reported as inactive: -0.7.
With CAGAUAUUGUUGACAAAGATT against NME5 the median seed-adjusted z-score was inactive: 0.393.
With GCAGCUCUACAACUCAGUUTT against IL12RB1 the median seed-adjusted z-score was inactive: -0.126.
With GGAAGAAACAAUUAAAGUATT against NDUFA6 the median seed-adjusted z-score was inactive: -0.457.
In the case of ACAUCGACUUUCUUGCUGATT against IMPDH1, the median seed-adjusted z-score is reported as inactive: 0.558.
For AGGCCGCUGUGGACAUCAATT against CASKIN1, the median seed-adjusted z-score was inactive: 0.555.
In the case of GCAGUUAUGUUGGAAGAUUTT against STX6, the median seed-adjusted z-score is reported as inactive: 0.748.
With GAAUUGUUCGUGACUAUGATT against PCYT1B the median seed-adjusted z-score was inactive: 0.177.
For GAAUCUUUCCCAUAUCGAATT against CREBBP, the median seed-adjusted z-score was inactive: 0.
For CCAUCUGUUUGAACUUAGATT against TLR5, the median seed-adjusted z-score was inactive: 0.
With GGAGCAAAACAGAUCUUGATT against PINX1 the median seed-adjusted z-score was inactive: 0.11.
With CGGCAUGCACGAUAAGUUUTT against ABHD8 the median seed-adjusted z-score was inactive: -0.48.
With AUUUAUUACUUACUGCUUATT against SLC31A2 the median seed-adjusted z-score was inactive: 0.401.
For GCAUGAUCCUUGUAGGACUTT against SGMS1, the median seed-adjusted z-score was inactive: -0.287.
With GUAGGUGAGUGGAAAUUCATT against DRD2 the median seed-adjusted z-score was inactive: -0.0273.
For ACGUGAGACUGCUCAGUGATT against GGA3, the median seed-adjusted z-score was inactive: -0.239.
For GGACUUAUUCAAUGGGAUATT against GPA33, the median seed-adjusted z-score was inactive: 0.138.
For GAGUCAUUAUUGACAACAATT against APH1B, the median seed-adjusted z-score was inactive: -0.135.
In the case of CAGAGGUUGUGACACGAAATT against PAK1, the median seed-adjusted z-score is reported as inactive: -0.168.
For ACGCGUUGCCCUUCACUAATT against CHST5, the median seed-adjusted z-score was inactive: 0.0149.
For GUUCCAUCCUGAGCACUUUTT against LPXN, the median seed-adjusted z-score was inactive: -0.065.
For CCGUUUUGGUGAGUCAACATT against RANBP2, the median seed-adjusted z-score was active: 1.53.
In the case of GCUCAUGGUUGAUGAUUCUTT against RABGGTA, the median seed-adjusted z-score is reported as inactive: -0.0601.
In the case of GAGCAAGGCUUAAUGGUCATT against CNGA3, the median seed-adjusted z-score is reported as inactive: -0.125.
In the case of CCCUGGAUCUGUCUCGUAATT against ZNF415, the median seed-adjusted z-score is reported as inactive: 0.222.
In the case of GGAGAUCUAUUUCAGAGUATT against SLC30A8, the median seed-adjusted z-score is reported as inactive: -0.767.
For CAAUCUUCUUGGGAUUAUUTT against TRPC7, the median seed-adjusted z-score was inactive: 0.146.
With GGAUCCUGCUAUAUGCUGATT against NPR2 the median seed-adjusted z-score was inactive: 0.0712.
For GGAACUCGCUACAAAGGAATT against DPM1, the median seed-adjusted z-score was inactive: -0.214.
With AUGUGCACCUGACUACUCATT against KRT35 the median seed-adjusted z-score was inactive: -0.1.
In the case of GGAUGGGUUUUGAUAUGAATT against MTMR3, the median seed-adjusted z-score is reported as inactive: 0.281.
With CCUCACUUGUGAAUCUUUATT against RNF4 the median seed-adjusted z-score was inactive: 0.787.
With CCACGAUCAUUCAGCUGCATT against PROCR the median seed-adjusted z-score was inactive: -0.476.
For GGAUCUUCUGACCAGCUCATT against ZNF773, the median seed-adjusted z-score was inactive: 0.345.
In the case of GUCGGAAGGUGAUUGAAUATT against PDIA2, the median seed-adjusted z-score is reported as inactive: 0.151.
With GCCUGACUUCGACUGCUCATT against GFER the median seed-adjusted z-score was inactive: 0.402.
With CCAUCAACCAGAUAGGCAATT against MATN1 the median seed-adjusted z-score was inactive: -0.271.
For GAACAUUGGUUCUUAGAGATT against MKRN2, the median seed-adjusted z-score was inactive: 0.
With UCAUCUUCAUCGACCGGAATT against AGPAT1 the median seed-adjusted z-score was active: -1.38.
With UCCAGACCCUAGUACCUAATT against CASP5 the median seed-adjusted z-score was inactive: 0.655.
In the case of ACACGAUUAGAUUCAAGCATT against SIK1, the median seed-adjusted z-score is reported as inactive: 0.887.
For CGAUAUAAGCUCCGAGAGATT against POLR2E, the median seed-adjusted z-score was active: -1.25.
In the case of GCAACAUCCUGGUUUUCGATT against LRP2, the median seed-adjusted z-score is reported as inactive: -0.512.
For AGGCAGAACUUUUGGAAAATT against TCF15, the median seed-adjusted z-score was inactive: -0.361.
With AGAGUUGGUGGUCCAGAUATT against BTNL9 the median seed-adjusted z-score was inactive: 0.0189.
With GGACCAACCCAGAAUCGUATT against MAOB the median seed-adjusted z-score was inactive: 0.
In the case of GGAUGUCUAGAUUACAUUUTT against PDE12, the median seed-adjusted z-score is reported as inactive: 0.422.
With GGUGGUUACCUGCAACUAUTT against POLI the median seed-adjusted z-score was inactive: 0.857.
In the case of AGACUGACCUCAACCAUGATT against CKM, the median seed-adjusted z-score is reported as inactive: -0.189.
For GGAAGGAGGUGACUAUGGATT against PLA2G4D, the median seed-adjusted z-score was inactive: -0.233.
In the case of CUGGGUGCCUGAUAUCUUUTT against GABRR3, the median seed-adjusted z-score is reported as inactive: 0.368.
With GCACAGUAGUCACCAAUGATT against FUCA2 the median seed-adjusted z-score was inactive: 0.562.
In the case of GGCUAGUGGUCAACAAUCATT against TFR2, the median seed-adjusted z-score is reported as inactive: 0.965.
For CAAUCAUCCCAGACGAUCATT against GATM, the median seed-adjusted z-score was inactive: 0.182.
With CGGUGCUGUUCGUCGUCUATT against GJD3 the median seed-adjusted z-score was inactive: -0.251.
In the case of AGAUUGCUGGGAUUCCCUATT against RAB36, the median seed-adjusted z-score is reported as inactive: -0.348.
With CAGUGGAAAUCGAGCAGGATT against HCN3 the median seed-adjusted z-score was inactive: 0.301.
With GUCCUAUCACCGUAUCUUATT against SF3B4 the median seed-adjusted z-score was active: -2.56.
In the case of CAGGUUCUAUGAAUUUGAATT against PHF1, the median seed-adjusted z-score is reported as inactive: -0.196.
With GGCUAGUAAGGAACCAGGATT against GLCE the median seed-adjusted z-score was inactive: 0.752.
For GUGCAACAGUAUACGUUAATT against CDH2, the median seed-adjusted z-score was inactive: -0.235.
In the case of GCAGGUGUAUACUACGUGATT against G6PC, the median seed-adjusted z-score is reported as inactive: -0.628.
For GCAUGAGAUUUUUACUUGATT against BDH1, the median seed-adjusted z-score was inactive: -0.0253.
In the case of GCAUCGCACCCAUUUAUGATT against ORC4L, the median seed-adjusted z-score is reported as inactive: -0.286.
